Results as given in doi:10.1101/2022.05.18.492435.
These are yes or no findings as the source states them, for the method shown. In cells and extracts the contact can be indirect. A yes stands for co-enrichment or nearness to the bait. Other partners may have been found.

Protein sequences, listed by entry. Tags and fused reporters are not part of them.
UniProt Q99496: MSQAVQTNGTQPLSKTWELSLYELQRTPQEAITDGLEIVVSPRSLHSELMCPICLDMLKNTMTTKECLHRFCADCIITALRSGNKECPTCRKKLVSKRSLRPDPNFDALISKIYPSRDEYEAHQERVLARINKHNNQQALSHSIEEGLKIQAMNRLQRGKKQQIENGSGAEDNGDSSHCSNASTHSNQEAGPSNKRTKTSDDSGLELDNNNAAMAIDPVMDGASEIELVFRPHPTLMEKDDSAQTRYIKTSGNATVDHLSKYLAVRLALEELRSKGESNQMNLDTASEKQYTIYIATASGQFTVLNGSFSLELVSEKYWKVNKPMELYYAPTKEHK
UniProt Q9BSM1: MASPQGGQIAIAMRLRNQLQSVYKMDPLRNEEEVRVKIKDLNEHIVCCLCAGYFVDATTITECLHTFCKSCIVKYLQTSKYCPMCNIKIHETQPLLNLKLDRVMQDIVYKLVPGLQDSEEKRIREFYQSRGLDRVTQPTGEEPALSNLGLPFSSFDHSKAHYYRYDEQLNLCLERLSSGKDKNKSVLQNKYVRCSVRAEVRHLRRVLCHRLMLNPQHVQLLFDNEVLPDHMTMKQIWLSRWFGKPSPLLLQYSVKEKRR
UniProt P35226: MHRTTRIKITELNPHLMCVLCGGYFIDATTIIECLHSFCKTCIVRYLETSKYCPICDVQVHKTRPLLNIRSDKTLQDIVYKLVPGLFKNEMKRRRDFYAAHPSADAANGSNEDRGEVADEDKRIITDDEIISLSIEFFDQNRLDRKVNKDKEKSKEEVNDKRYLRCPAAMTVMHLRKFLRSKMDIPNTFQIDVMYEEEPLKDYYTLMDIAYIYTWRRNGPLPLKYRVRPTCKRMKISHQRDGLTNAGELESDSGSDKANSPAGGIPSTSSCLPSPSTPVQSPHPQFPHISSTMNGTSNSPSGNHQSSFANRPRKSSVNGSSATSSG
UniProt Q86SE9: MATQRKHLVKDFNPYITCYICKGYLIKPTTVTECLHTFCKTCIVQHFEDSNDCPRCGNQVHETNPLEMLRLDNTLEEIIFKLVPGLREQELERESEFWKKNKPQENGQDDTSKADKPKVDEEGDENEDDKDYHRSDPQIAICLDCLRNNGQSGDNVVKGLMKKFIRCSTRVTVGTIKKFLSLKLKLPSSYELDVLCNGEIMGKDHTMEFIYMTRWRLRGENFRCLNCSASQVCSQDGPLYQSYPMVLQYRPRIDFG

T1: PCGF2 (human (endogenous in NT2)) (UniProt P35227)
T1 sequence: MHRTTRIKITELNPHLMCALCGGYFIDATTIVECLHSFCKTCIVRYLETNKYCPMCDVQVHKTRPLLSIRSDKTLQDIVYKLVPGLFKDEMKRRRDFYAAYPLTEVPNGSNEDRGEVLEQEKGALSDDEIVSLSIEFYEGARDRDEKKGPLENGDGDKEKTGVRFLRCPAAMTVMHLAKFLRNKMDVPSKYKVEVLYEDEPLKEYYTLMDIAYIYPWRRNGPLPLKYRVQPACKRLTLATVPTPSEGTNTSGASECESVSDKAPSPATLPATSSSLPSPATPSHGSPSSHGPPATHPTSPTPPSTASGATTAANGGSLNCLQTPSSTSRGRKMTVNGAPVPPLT

B1: PCGF6 (protein, UniProt Q9BYE7 1-350)
chain: MEGVAVVTAGSVGAAKTEGAAALPPPPPVSPPALTPAPAAGEEGPAPLSETGAPGCSGSRPPELEPERSLGRFRGRFEDEDEELEEEEELEEEEEEEEEDMSHFSLRLEGGRQDSEDEEERLINLSELTPYILCSICKGYLIDATTITECLHTFCKSCIVRHFYYSNRCPKCNIVVHQTQPLYNIRLDRQLQDIVYKLVINLEEREKKQMHDFYKERGLEVPKPAVPQPVPSSKGRSKKVLESVFRIPPELDMSLLLEFIGANEGTGHFKPLEKKFVRVSGEATIGHVEKFLRRKMGLDPACQVDIICGDHLLEQYQTLREIRRAIGDAAMQDGLLVLHYGLVVSPLKIT
B2: PCGF3 (protein, UniProt Q3KNV8 1-242)
chain: MLTRKIKLWDINAHITCRLCSGYLIDATTVTECLHTFCRSCLVKYLEENNTCPTCRIVIHQSHPLQYIGHDRTMQDIVYKLVPGLQEAEMRKQREFYHKLGMEVPGDIKGETCSAKQHLDSHRNGETKADDSSNKEAAEEKPEEDNDYHRSDEQVSICLECNSSKLRGLKRKWIRCSAQATVLHLKKFIAKKLNLSSFNELDILCNEEILGKDHTLKFVVVTRWRFKKAPLLLHYRPKMDLL
B3: PHC3 (protein, UniProt Q8NDX5 1-983)
chain: MDTEPNPGTSSVSTTTSSTTTTTITTSSSRMQQPQISVYSGSDRHAVQVIQQALHRPPSSAAQYLQQMYAAQQQHLMLHTAALQQQHLSSSQLQSLAAVQASLSSGRPSTSPTGSVTQQSSMSQTSINLSTSPTPAQLISRSQASSSTSGSITQQTMLLGSTSPTLTASQAQMYLRAQMLIFTPATTVAAVQSDIPVVSSSSSSSCQSAATQVQNLTLRSQKLGVLSSSQNGPPKSTSQTQSLTICHNKTTVTSSKISQRDPSPESNKKGESPSLESRSTAVTRTSSIHQLIAPASYSPIQPHSLIKHQQIPLHSPPSKVSHHQLILQQQQQQIQPITLQNSTQDPPPSQHCIPLQNHGLPPAPSNAQSQHCSPIQSHPSPLTVSPNQSQSAQQSVVVSPPPPHSPSQSPTIIIHPQALIQPHPLVSSALQPGPNLQQSTANQVQATAQLNLPSHLPLPASPVVHIGPVQQSALVSPGQQIVSPSHQQYSSLQSSPIPIASPPQMSTSPPAQIPPLPLQSMQSLQVQPEILSQGQVLVQNALVSEEELPAAEALVQLPFQTLPPPQTVAVNLQVQPPAPVDPPVVYQVEDVCEEEMPEESDECVRMDRTPPPPTLSPAAITVGRGEDLTSEHPLLEQVELPAVASVSASVIKSPSDPSHVSVPPPPLLLPAATTRSNSTSMHSSIPSIENKPPQAIVKPQILTHVIEGFVIQEGLEPFPVSRSSLLIEQPVKKRPLLDNQVINSVCVQPELQNNTKHADNSSDTEMEDMIAEETLEEMDSELLKCEFCGKMGYANEFLRSKRFCTMSCAKRYNVSCSKKFALSRWNRKPDNQSLGHRGRRPSGPDGAAREHILRQLPITYPSAEEDLASHEDSVPSAMTTRLRRQSERERERELRDVRIRKMPENSDLLPVAQTEPSIWTVDDVWAFIHSLPGCQDIADEFRAQEIDGQALLLLKEDHLMSAMNIKLGPALKICARINSLKES
B4: PCGF2 (protein, UniProt P35227 1-344)
chain: T1 sequence

What was measured:
Experiment in all cases: affinity purification with mass spectrometry
[1] = target: RNF2 (human (endogenous in NT2)) (UniProt Q99496)
[2] = target: PCGF1 (human (endogenous in NT2)) (UniProt Q9BSM1)
[3] = target: T1, PCGF2 (human (endogenous in NT2))
[4] = target: PCGF4 (human (endogenous in NT2)) (UniProt P35226)

Row | Molecule | binding [1] | binding [2] | binding [3] | binding [4]
1 | PCGF5 (from UniProt Q86SE9 1-256) | binds | – | – | –
2 | B1 | binds | – | – | –
3 | B2 | binds | – | – | –
4 | B3 | – | binds | binds | binds
5 | B4 | binds | – | – | –
